The structures appear in SMILES notation. This is one part of the list. Most values come without repeats; read them as rough.

This assay has as its system Saccharomyces cerevisiae BY4743. Description: growth (OD600) relative to untreated control; higher = less growth inhibition. The conditions noted are these: compound concentration: 133 uM; 20 h. On the procedure:
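NMCCC compounds (133 uM, no IPBC) tested alone against Saccharomyces cerevisiae BY4743 in YPD, 96-well plates, starting OD600 ~0.1. Growth was read as OD600 at 20 h and expressed as % of the untreated control. Single pass.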
The compound `CC(C)COC(=O)Nc1nnc(/C=C/c2ccccc2)s1` displayed a growth of 88.9%.
On to `CCOC(=O)CNC(=O)C1CCCc2c1[nH]c1ccc(Cl)cc21` (stereo not drawn), for which the growth is 105%.
With `CCN(CC)CCS\C1=N\C(=C(\CC)C(=O)N1C2=CC=CC=C2)O` the figure was 97.1%; with `CC(C)CC[N]1C(=CC(=C1C)C(=O)CN2\N=C(/C=C\C2=O)C3=CC=CC=C3)C`, 101%.
On to `O=C(c1cc[nH]n1)N1CCc2sccc2C1`, for which the growth came to 91.3%.
The result for `CCN(CC)S(=O)(=O)c1cccc(C(=O)N[C@H](C(=O)Nc2ccc3c(c2)OCCO3)C(C)C)c1` reads 107%.
`CCOC(=O)COc1ccc2c(c1)c(C(C)=O)c(C)n2-c1ccc(Cl)cc1`: the growth came to 57%.
The result for `CCOC(=O)c1nc2ccccc2nc1Nc1cc(C)ccc1C` reads 87.2%; that for `CCOC(=O)\C1=C(/COC(=O)C2CCN(CC2)C(=O)C3=CC=CS3)NC(=O)NC1C` (stereo not drawn), 98.1%.
With `COc1cc(C(=O)Nc2ccccc2OCC2CCCO2)cc(OC)c1OC` (stereo not drawn) the figure was 99.7%; with `CCCCN1\C=N/[S](=O)(=O)C2=CC=C(C=C12)C(F)(F)F`, 106%; with `CCOC(=O)c1[nH]c(C)c(C(=O)Nc2c(C)cc(C)cc2C)c1C`, 88.1%.
With `Cn1ncc2c(SCCC(=O)Nc3ccccc3F)ncnc21` the figure was 82%.
`CCOC(=O)c1ccc(NC(=O)NC2CC(=O)N(C3CCCC3)C2)cc1` (stereo not drawn) registered a growth of 96.7%.
In turn, `CCOc1cc(C(=O)N(C)Cc2nc3ccccc3s2)cc(OCC)c1OCC` gave a growth of 108%.
The result for `Cc1ccc(Cl)cc1N1C(=O)N(C)c2ccccc2S1(=O)=O` reads 83.4%.
Compound `CC(C)CCNC(=O)Cn1c(=O)[nH]c2c(-c3ccccc3F)c[nH]c2c1=O` returned a growth of 80.5%.
With `CCOc1ccc(NC(C)=O)cc1S(=O)(=O)N1CC(C(=O)N(C)C)Oc2ccccc21` (stereo not drawn) the figure was 120%.
Compound `Cc1cc(NS(=O)(=O)c2ccc(NC(=O)N[C@H](C(=O)O)C(C)C)cc2)no1` gave a growth of 105%.
With `CCOC(=O)C(Sc1nnc2ccccn12)c1ccccc1` (stereo not drawn) the figure was 106%; with `CC(C)CN1\C=C(\NC(=O)NCC2CCCO2)C3=CC=CC=C3C1=O` (stereo not drawn), 108%.
Compound `CN(CCOC1=CC=CC=C1)[S](=O)(=O)\C2=C\N(C)C(=O)N(C)C2=O` had a growth of 102%.
The result for `C=C1N(CCc2ccccn2)C(=O)OC12CCCCC2` reads 84.3%; that for `CCOC(=O)c1cc(C)n(-c2ccc(C(=O)N3CCN(C(=O)OCC)CC3)cc2)c1C`, 94.8%.
In turn, `CC(C)CNC(=O)CN1\N=N/C2=C(C1=O)C3=C(CC(CC3)C(C)(C)C)S2` (stereo not drawn) displayed a growth of 109%.
With `O=C(c1ccco1)N1CCN(C(=O)c2cccnc2SC(F)F)CC1` the figure was 92%; with `Cc1nn(CC(=O)Nc2ccccc2C(F)(F)F)c2ccccc12`, 110%.
The result for `Cc1ccnc(NC(=O)c2ccc(C)cc2Cl)c1` reads 95.7%.
Compound `CCO/C(O)=C1/C(CC)=Nc2ccccc2N=C1NS(=O)(=O)c1cccc(C(C)=O)c1` gave a growth of 101%.
The result for `CN(Cc1cnn(-c2ccccc2)c1)C(=O)c1cc(S(=O)(=O)N(C)C)ccc1Cl` reads 100%; that for `CCN(CC(=O)NC1CCS(=O)(=O)C1)C(=O)c1ccc(-n2cncn2)cc1` (stereo not drawn), 103%; that for `Cc1ccc(-n2nc(C)c(C(=O)NCC(=O)NCc3ccco3)n2)c(C)c1`, 106%.
With `CCCn1c(=O)[nH]c(=O)c2c3c(cnc21)C(=O)CCC3`, the growth was 103%.
The result for `Cc1sc(NC(=O)C2CC2)c(C(=O)OC(C)C(=O)N2CCCC2)c1C` (stereo not drawn) reads 101%; that for `Cc1ccc(NC(=O)C2(N(C)C(=O)c3ccccn3)CCCCC2)cc1Br`, 105%.
The result for `CCOC(=O)c1cc(S(=O)(=O)N(C)CC(=O)Nc2cccc(C)n2)cn1C` reads 104%.
Take `Cc1cc(C(=O)OCC(=O)c2ccc[nH]2)c(C)n1Cc1cccs1`: the growth stood at 98.7%.
As to `COc1ccc(Cl)cc1C(=O)NCCc1ccc(-n2cccn2)cc1`, the growth stood at 104%.

(Values after the supplement of paper PMC8007513.)
